# Measured values reported in paper PMC7819943, “Rice protein-binding microarrays: a tool to detect cis-acting elements near promoter regions in rice”.
# Protein sequences, listed by entry. Tags and fused reporters are not part of them.
# UniProt Q0JBA9, entry or part of it: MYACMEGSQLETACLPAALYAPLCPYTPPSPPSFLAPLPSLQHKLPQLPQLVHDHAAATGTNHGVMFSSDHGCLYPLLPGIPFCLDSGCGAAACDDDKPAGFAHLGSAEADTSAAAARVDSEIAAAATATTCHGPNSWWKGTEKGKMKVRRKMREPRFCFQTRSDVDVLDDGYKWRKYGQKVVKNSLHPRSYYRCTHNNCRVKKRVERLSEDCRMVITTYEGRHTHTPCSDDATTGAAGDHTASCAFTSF
# This is one part of the list.
# Target: OsWRKY34 (Oryza sativa, UniProt Q0JBA9 1-250)
# Experiment: protein-binding microarray (RPBM); PBS, 2% BSA, 51.3 ng/ul salmon testes DNA, 50 uM zinc acetate, 200 nM TF, 25 C, 1 h; high values mean tight binding
# Settings: protein: recombinant; tags: N-terminal polyhistidine and DsRed monomer fusion (pET32a); label: CyDye5-dUTP incorporated in the synthesized complementary strand; 3' TTTTT single-stranded linker to array surface; dsDNA, one strand shown
# Method in brief: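 The binding signal for each feature is its fluorescence intensity in arbitrary units. An Axon 4000B scanner was used to read a custom Agilent array that had been made double-stranded with Cy5-dUTP primer extension, blocked with 2% BSA, incubated at 25 °C for 1 h with 200 nM protein in PBS, 2% BSA, salmon testes DNA and 50 µM zinc acetate, and washed. The protein was an N-terminal polyhistidine–DsRed transcription factor fusion from E. coli BL21-CodonPlus, purified on Ni–NTA.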
row,Sequence,binding signal
1,GGAAACTGGTGGGGTGGGAGTCGCCACGACACGCGGCGACCGGAGTCACCTAGTGCAG,8380 fluorescence intensity (a.u.)
2,TCCATCAGTCATTCCAAGGTCAACCCAAACCCTACCTGGTCGGAGTCACCTAGTGCAG,8580 fluorescence intensity (a.u.)
3,ATTATTGTAAGGCCCTGTTTCTTTCAGCTTTGGATTATTACGGAGTCACCTAGTGCAG,9490 fluorescence intensity (a.u.)
4,GCCCCGAGCGGGCCGAGCTCCCATCGTCTCATCGCCCCAACGGAGTCACCTAGTGCAG,11600 fluorescence intensity (a.u.)
5,GTTGTGTTCCCTTGCCGCCGTTTACCAGTATGTGACCAAACGGAGTCACCTAGTGCAG,12500 fluorescence intensity (a.u.)
6,CGGTCAATTCGGTTTTTTGGCTCGGTTAACCGAATTGACACGGAGTCACCTAGTGCAG,8520 fluorescence intensity (a.u.)
7,TCCACACACAAGCACACATCCACACAACGGCAATTAATCACGGAGTCACCTAGTGCAG,8930 fluorescence intensity (a.u.)
8,ACCACCATCCATGATCCATCCACAGATCCACTAGTACACTCGGAGTCACCTAGTGCAG,9440 fluorescence intensity (a.u.)
9,TCGATCGGTCTATATATTGGCGGGGTGGACCGTGGGCCGACGGAGTCACCTAGTGCAG,9410 fluorescence intensity (a.u.)
10,ACGTGATCCTGTTGTGTCTTAATTACTCGACGCTTTGATCCGGAGTCACCTAGTGCAG,10100 fluorescence intensity (a.u.)
11,AGCGGTTTTACACATTTTTCTTACAATATTTGTTTGTTTCCGGAGTCACCTAGTGCAG,10400 fluorescence intensity (a.u.)
12,TTTGCTTTTGGTCGGTGTTTTGATTTTTCTGCACATACAACGGAGTCACCTAGTGCAG,8680 fluorescence intensity (a.u.)
13,ATCTTGCTGATTTTGTTGTTGATTTGAATGCTATGTAAACCGGAGTCACCTAGTGCAG,9140 fluorescence intensity (a.u.)
14,CATCTACATGGATATGCATCTCTATATATACGAACTTACCCGGAGTCACCTAGTGCAG,8070 fluorescence intensity (a.u.)
15,CTGCCTAGACACAGCTCTACAACTCTAGTACATTTTGTGACGGAGTCACCTAGTGCAG,8190 fluorescence intensity (a.u.)
16,GGAGAGGTGTATTTATATGTTTTTTTGTAGCGGTTAGATACGGAGTCACCTAGTGCAG,8930 fluorescence intensity (a.u.)
17,TCCTCGTCTACGACGCGTTCCTCCTCTGGGCGCGCGCTGTCGGAGTCACCTAGTGCAG,8650 fluorescence intensity (a.u.)
18,GAGCACATCTTCAGGTAGCAGGTTTTCCATGCCCTCTATCCGGAGTCACCTAGTGCAG,12000 fluorescence intensity (a.u.)
19,GAAATCCTCCCCTCTCGCTCTACATGTTTGACTTTGACTTCGGAGTCACCTAGTGCAG,8100 fluorescence intensity (a.u.)
20,TAATTTCATAACTCGCCTGGAAACCACGTGACAATCTTTTCGGAGTCACCTAGTGCAG,8110 fluorescence intensity (a.u.)
21,CATCAGCCGCTGACGTCAGCCGCCACCTCACATCGCTGACCGGAGTCACCTAGTGCAG,10300 fluorescence intensity (a.u.)

row,Sequence,binding signal
1,ACACTCTCCATCTCTTGTCACCTTGCTCTACTCTCCCCTTCGGAGTCACCTAGTGCAG,10000 fluorescence intensity (a.u.)
2,AGTTGATCATGAATGCATTCTTTGTGAGTTGATATTTATTCGGAGTCACCTAGTGCAG,8160 fluorescence intensity (a.u.)
3,AAGTCATCCGTATTTGAGTCGATTTTTAAGTCCGTTCGCTCGGAGTCACCTAGTGCAG,8670 fluorescence intensity (a.u.)
4,ATTTTTGGTAGTCTTGTTTCGTGATATTCGTGAAGAGGGGCGGAGTCACCTAGTGCAG,10700 fluorescence intensity (a.u.)
5,CCACGCTCTCTCGTCTGCCTGAACACGCTCGCCGGCGATGCGGAGTCACCTAGTGCAG,9280 fluorescence intensity (a.u.)
6,CTGCTATGAATTATCGGTTGCTTCCGGTGTTGGGCATTGACGGAGTCACCTAGTGCAG,12400 fluorescence intensity (a.u.)
7,ATTAGGGGTGTGTTTGAGGAGAAGGAGATTGGGGAGATTGCGGAGTCACCTAGTGCAG,8190 fluorescence intensity (a.u.)
8,GCTACATCCACACCAAATCCCAATCCGCTAAAATAATTTGCGGAGTCACCTAGTGCAG,8050 fluorescence intensity (a.u.)
9,GAGGAGGAGGAGGAGGAGGAGGAGGATGCGGGTGGTGGTGCGGAGTCACCTAGTGCAG,10500 fluorescence intensity (a.u.)
10,TTCGATTTGGGTTTTGGGATGTAGTAGTCGCCAGTATCATCGGAGTCACCTAGTGCAG,12700 fluorescence intensity (a.u.)
11,AACTCAGTCTCAGCTCACATGATGCATCATCAGCCATGGCCGGAGTCACCTAGTGCAG,8200 fluorescence intensity (a.u.)
12,CAACCACCGCTACTCTCCGCCGCTGAGCTCGCCATCGTGCCGGAGTCACCTAGTGCAG,9010 fluorescence intensity (a.u.)
13,GGCCAACCAAAACCCTCCTCCTCTCATCATCGCCCAAAACCGGAGTCACCTAGTGCAG,9060 fluorescence intensity (a.u.)
14,TTAGATTTTTCTTACAACCATTTGCATTGATTTTTTTTTTCGGAGTCACCTAGTGCAG,8960 fluorescence intensity (a.u.)
15,TCTCTCGGCATCTTCATCTCTATCCCCTTTCCTCTATCTCCGGAGTCACCTAGTGCAG,10600 fluorescence intensity (a.u.)
16,TAGCTCCAATTCATCTATAGTCAATCTAATAGCCATTTAACGGAGTCACCTAGTGCAG,8780 fluorescence intensity (a.u.)
17,CGCTTGCCGCCCGCTCCGCGCTATTCACCCCGGCCGGCAGCGGAGTCACCTAGTGCAG,8320 fluorescence intensity (a.u.)
18,AAGAGAGTAGTACATAGCTATTCCCTCTGGTTTTAAATATCGGAGTCACCTAGTGCAG,8120 fluorescence intensity (a.u.)
19,TATCTTTTAAATCATTTTATGTATCTATTTGGTATATTTCCGGAGTCACCTAGTGCAG,9430 fluorescence intensity (a.u.)
20,GATTCGGACAATGCAAGCATCCTCTTCCTATAAAAGTCTTCGGAGTCACCTAGTGCAG,8040 fluorescence intensity (a.u.)
21,GGTGTGTACAGTTTGTCCAAATCACCAACCAACCATACATCGGAGTCACCTAGTGCAG,9200 fluorescence intensity (a.u.)

row,Sequence,binding signal
1,TTCTTTCTTTTTTATTTATTTATTTATTTATTTATTTATTCGGAGTCACCTAGTGCAG,9060 fluorescence intensity (a.u.)
2,CGGCCGGCCGGTGACCACCAACCACTCTACCACAACCATTCGGAGTCACCTAGTGCAG,8610 fluorescence intensity (a.u.)
3,AATACTTAGCTCGAGCCGCTCTCGTCTTCCCCAATCTCGCCGGAGTCACCTAGTGCAG,8040 fluorescence intensity (a.u.)
4,CTCACCACCACCACTCCCACATTTCTTCCATCCCTACTCACGGAGTCACCTAGTGCAG,10900 fluorescence intensity (a.u.)
5,CCAGAAATCCGCTTCTCCACTTGTCACGCGCCTCCAGCGACGGAGTCACCTAGTGCAG,9890 fluorescence intensity (a.u.)
6,GCTAATTTATCCTGCTCACACGTCGTATTGCCAACCCGACCGGAGTCACCTAGTGCAG,9390 fluorescence intensity (a.u.)
7,GTACCTGCATTCCTATCGAAATCCTGTGTTTTCCCTATTTCGGAGTCACCTAGTGCAG,8980 fluorescence intensity (a.u.)
8,ATTAGAGCGATTTTCTAGCTATTCTATGCCAGTGTGACTCCGGAGTCACCTAGTGCAG,9510 fluorescence intensity (a.u.)
9,GTCGCTTCTCCTGTCCGCGTCCGGTATCTTGGCGAAAATCCGGAGTCACCTAGTGCAG,8620 fluorescence intensity (a.u.)
10,TCCTTTTCTTTTATTGGATATATGCCATTACAGCTTTTTTCGGAGTCACCTAGTGCAG,9540 fluorescence intensity (a.u.)
11,TGCGATTTTACACCTTTTATCCATCTGTAAATTGTAATTTCGGAGTCACCTAGTGCAG,8880 fluorescence intensity (a.u.)
12,GCTCGTCCACCATCCTTTCGCCGCCGCAGCGCGCCATGGACGGAGTCACCTAGTGCAG,8320 fluorescence intensity (a.u.)
13,ATCCTCCGCCGCCGCCTCACCTCCTCCGCCACCGCGCTCGCGGAGTCACCTAGTGCAG,8270 fluorescence intensity (a.u.)
14,TTCCTCTTGCTTTCTCCTCCGGGGCCTTGTCGATCTCGTCCGGAGTCACCTAGTGCAG,8580 fluorescence intensity (a.u.)
15,CTCGTGGTCGGCGCTCCACACTCTACCCTCGCCGAACCTTCGGAGTCACCTAGTGCAG,14300 fluorescence intensity (a.u.)
16,TCCATGTCACCCTACTTTATCCCGACCGTTCAATCTCAATCGGAGTCACCTAGTGCAG,8450 fluorescence intensity (a.u.)
17,CTTCCCATAACTTTGAACCGTTAGATTTGTTTTAAAATTCCGGAGTCACCTAGTGCAG,8770 fluorescence intensity (a.u.)
18,GGCTGGCTTATGTATATTTCCTAGTTATTGCTGCTCTTAACGGAGTCACCTAGTGCAG,8910 fluorescence intensity (a.u.)
19,GCTCCATCTCCTCTCGCATAAAATTTTTTACACCAACACACGGAGTCACCTAGTGCAG,8280 fluorescence intensity (a.u.)
20,ATTGCCACGCCACGCGCGGGTGGACGGGAAGGGAGGGGAGCGGAGTCACCTAGTGCAG,9340 fluorescence intensity (a.u.)
21,GGAGGAGAGGAGTTAGGGTTAAAGGGGTCTGCATGAATCTCGGAGTCACCTAGTGCAG,11800 fluorescence intensity (a.u.)

row,Sequence,binding signal
1,GGGTGTGTGTGTTGAGGGTTGGCGTCCGTGTCCAGATCTACGGAGTCACCTAGTGCAG,9520 fluorescence intensity (a.u.)
2,TTTTGTCATTGTGGGTGGTCAGTTATGCTTGTTGGGATGACGGAGTCACCTAGTGCAG,8830 fluorescence intensity (a.u.)
3,CATCCTTTCTCATGTGAAACTATTCCTATATTCAAAGATTCGGAGTCACCTAGTGCAG,8240 fluorescence intensity (a.u.)
4,CAGGACACCGGCCCACGCGTATTCTCCTGGTCCCACACGTCGGAGTCACCTAGTGCAG,11100 fluorescence intensity (a.u.)
5,TCCTCCTGCGTCTAGTACCCTATCTTCACCTTTCCGGAGACGGAGTCACCTAGTGCAG,10100 fluorescence intensity (a.u.)
6,ATATAGACCGCATATCCCTTCTCGCTAGCTTGCTTAACCCCGGAGTCACCTAGTGCAG,8400 fluorescence intensity (a.u.)
7,TCGGTGTACTTTTTCCGCCGGAATTCCCCGGGGTGCCTCACGGAGTCACCTAGTGCAG,8410 fluorescence intensity (a.u.)
8,TTTTTTGTATGGTACAGGTTTGAGAGGGTGTGGGACCCTACGGAGTCACCTAGTGCAG,9820 fluorescence intensity (a.u.)
9,TTTTTGTCCATGAACCATATGTTTCTTTTTCTTTTTTGAACGGAGTCACCTAGTGCAG,8930 fluorescence intensity (a.u.)
10,ACACCATCGTTCAGCTTGTTGTCGTCTCATTGGTCAACACCGGAGTCACCTAGTGCAG,10400 fluorescence intensity (a.u.)
11,ATCCTGCCATATATTCGGCCAGAATTGTTTTCTTCAATTTCGGAGTCACCTAGTGCAG,9600 fluorescence intensity (a.u.)
12,GAGTACTACTGCTGCAACTTTAATAACATTCAACAATGTTCGGAGTCACCTAGTGCAG,9540 fluorescence intensity (a.u.)
13,ATTCAATCTCATTTGCCTGATTACAGTTAGATACTGACATCGGAGTCACCTAGTGCAG,8090 fluorescence intensity (a.u.)
14,GTGTTGCATATACTTGTTCCCACACAACTCATGTCTATCACGGAGTCACCTAGTGCAG,8550 fluorescence intensity (a.u.)
15,CTCTGTTTTACAATGTAAGTCATTCTAGCATTTTCCACATCGGAGTCACCTAGTGCAG,9780 fluorescence intensity (a.u.)
16,CCCTCCGTTTCAAAATGTTTGATACCGTTGACTTTTTAGCCGGAGTCACCTAGTGCAG,21200 fluorescence intensity (a.u.)
17,AACCTTTTCGCGCGCTTTTGACATCATCCTTTTGCTTGGCCGGAGTCACCTAGTGCAG,12200 fluorescence intensity (a.u.)
18,TTAACCCCGTCACGTCACCTCTCTCTCTCTCTACCGTCTCCGGAGTCACCTAGTGCAG,10400 fluorescence intensity (a.u.)
19,GCCTCCTAACCACGTCGGTTTCATTGCCCTGTCGCTGACCCGGAGTCACCTAGTGCAG,10700 fluorescence intensity (a.u.)
20,GGTCACACCGTTCCAAGCCACTCTCACACGCACGCGCGTCCGGAGTCACCTAGTGCAG,9090 fluorescence intensity (a.u.)
21,GCATTCTTCCCATCGTTTCCCAACTTCATATGTAGTATATCGGAGTCACCTAGTGCAG,8270 fluorescence intensity (a.u.)
